In article PMC7862700:
Only a part is listed here, and it is no random draw. At the low end of the ranking the order means little.

Amino acid sequences for entries named in this document (tags omitted). A change or cut given only in a name is not applied to a line headed by its entry.
UniProt Q01892: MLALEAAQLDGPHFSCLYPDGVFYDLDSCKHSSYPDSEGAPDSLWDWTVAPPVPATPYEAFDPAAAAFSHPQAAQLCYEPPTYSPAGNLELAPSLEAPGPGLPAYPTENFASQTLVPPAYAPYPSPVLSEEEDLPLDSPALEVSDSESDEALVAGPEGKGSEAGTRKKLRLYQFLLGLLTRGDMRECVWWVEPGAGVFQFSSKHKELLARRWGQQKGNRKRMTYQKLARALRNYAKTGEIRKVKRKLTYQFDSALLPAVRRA

Legend:
Test in all cases: DAPPL (digital affinity profiling via proximity ligation, sequencing)
Conditions in all cases: 10 mM Tris-HCl pH 7.5, 50 mM NaCl, 1 mM DTT, 4% glycerol, room temperature, 30 min; GST-TFs on glutathione beads, 16-mer random dsDNA library, 0.1% …; high values mean tight binding; double strand, one strand shown; scale: fold enrichment (6-mer frequency, TF over GST control)
ETV2 = biological target: T1, ETV2 (UniProt O00321)
T1 sequence: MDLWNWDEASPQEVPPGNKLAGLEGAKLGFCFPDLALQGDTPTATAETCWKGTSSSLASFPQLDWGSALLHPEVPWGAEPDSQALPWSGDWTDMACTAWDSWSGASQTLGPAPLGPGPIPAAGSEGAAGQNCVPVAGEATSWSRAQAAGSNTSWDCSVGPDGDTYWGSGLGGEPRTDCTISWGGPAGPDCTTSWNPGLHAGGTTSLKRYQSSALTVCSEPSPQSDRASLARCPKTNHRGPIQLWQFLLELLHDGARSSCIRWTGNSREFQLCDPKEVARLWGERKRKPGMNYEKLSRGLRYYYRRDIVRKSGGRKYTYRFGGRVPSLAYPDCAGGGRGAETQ

ETV3L = biological target: T2, ETV3L (UniProt Q6ZN32)
T2 sequence: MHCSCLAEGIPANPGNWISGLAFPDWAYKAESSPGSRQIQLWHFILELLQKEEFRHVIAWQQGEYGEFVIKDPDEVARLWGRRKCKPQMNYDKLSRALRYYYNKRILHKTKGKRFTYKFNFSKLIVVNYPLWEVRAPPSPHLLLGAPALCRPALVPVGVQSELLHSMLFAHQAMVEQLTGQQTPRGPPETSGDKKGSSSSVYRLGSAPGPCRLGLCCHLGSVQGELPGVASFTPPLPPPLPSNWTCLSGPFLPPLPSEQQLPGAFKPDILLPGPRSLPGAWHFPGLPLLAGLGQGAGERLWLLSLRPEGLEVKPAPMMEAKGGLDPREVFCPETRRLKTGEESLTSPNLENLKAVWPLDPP

SPIB = SPIB (UniProt Q01892)
EHF = biological target: T3, EHF (UniProt Q9NZC4)
T3 sequence: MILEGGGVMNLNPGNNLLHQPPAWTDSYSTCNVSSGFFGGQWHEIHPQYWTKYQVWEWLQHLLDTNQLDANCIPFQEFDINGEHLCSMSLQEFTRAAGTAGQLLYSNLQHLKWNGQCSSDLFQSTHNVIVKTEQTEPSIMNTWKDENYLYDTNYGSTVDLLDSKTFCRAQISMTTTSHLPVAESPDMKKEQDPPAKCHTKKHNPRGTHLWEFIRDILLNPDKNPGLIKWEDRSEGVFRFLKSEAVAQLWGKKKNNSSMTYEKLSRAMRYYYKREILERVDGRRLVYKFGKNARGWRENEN

TTGACC
binding signal (ETV2): 1.38

TACGTA
binding signal (ETV2): 1.33

TTCCTG
binding signal (ETV2): 2.46

TAGCGG
binding signal (ETV2): 1.19

GATTAT
binding signal (ETV2): 1.07

TATGAA
binding signal (ETV2): 1.17

GAATAA
binding signal (ETV2): 1.13

CTTGTG
binding signal (ETV2): 1.44

TTGATG
binding signal (ETV2): 1.53

TACTTA
binding signal (ETV2): 1.16

TATGGT
binding signal (ETV2): 1

CGAAGC
binding signal (ETV2): 1.3
binding signal (ETV3L): 1.2

TTTTGC
binding signal (ETV2): 1.53

ATACAG
binding signal (ETV2): 1.24

AAATAT
binding signal (ETV2): 1.49

CACCAT
binding signal (ETV2): 1.17

TTATTG
binding signal (ETV2): 1.33

ACTTCA
binding signal (ETV2): 1.37

TAACTC
binding signal (ETV2): 0.989

TACCGC
binding signal (ETV2): 1.16

TGTTAA
binding signal (ETV2): 1.06

ATAACT
binding signal (ETV2): 1.39

AATTAG
binding signal (ETV2): 1.12

AGCCTC
binding signal (ETV2): 0.926

CTGCCC
binding signal (ETV2): 1.38
binding signal (ETV3L): 1.22

ATACCA
binding signal (ETV2): 1.08

GCACTT
binding signal (ETV2): 1.66

CCGGAA
binding signal (ETV2): 5.1

GCTTCA
binding signal (ETV2): 1.29

ATTTCT
binding signal (ETV2): 1.4

TCGCTA
binding signal (ETV2): 1.24

TTCCTT
binding signal (ETV2): 1.79

CGCCCG
binding signal (ETV2): 0.995

TACATT
binding signal (SPIB): 1.29
binding signal (ETV2): 1.17
binding signal (ETV3L): 1.18

CGACGT
binding signal (ETV2): 1.49
binding signal (ETV3L): 0.989

CTTCTG
binding signal (ETV2): 1.32
binding signal (ETV3L): 1.47

TATCGA
binding signal (ETV2): 1.44
binding signal (ETV3L): 1.41

TTGTGG
binding signal (ETV2): 1.29
binding signal (ETV3L): 1.6

CCTCCC
binding signal (ETV2): 1.71
binding signal (ETV3L): 1.49

CGATTA
binding signal (ETV2): 1.13
binding signal (ETV3L): 1.23

TGTTCA
binding signal (ETV2): 1.07
binding signal (ETV3L): 1.23

CCATGC
binding signal (SPIB): 0.987
binding signal (ETV2): 0.946
binding signal (ETV3L): 0.988

GGCCCC
binding signal (EHF): 0.933
binding signal (SPIB): 0.999
binding signal (ETV2): 1.13
binding signal (ETV3L): 0.993

TCGTAC
binding signal (ETV2): 1.22
binding signal (ETV3L): 0.993

GATACT
binding signal (EHF): 1.21
binding signal (SPIB): 1.16
binding signal (ETV2): 1.02
binding signal (ETV3L): 1.22

TGAACT
binding signal (ETV2): 1.2
binding signal (ETV3L): 1.23

CTTGGG
binding signal (ETV2): 1.15
binding signal (ETV3L): 1.26

CTGCAC
binding signal (ETV2): 1.24
binding signal (ETV3L): 1.16

AAATTA
binding signal (ETV2): 1.4
binding signal (ETV3L): 1.31

GATGAC
binding signal (EHF): 1.43
binding signal (ETV2): 1.35
binding signal (ETV3L): 1.53

TGCGTA
binding signal (ETV2): 1.21
binding signal (ETV3L): 1.17

ATTCGT
binding signal (ETV2): 1.16
binding signal (ETV3L): 1.16

ATCAGC
binding signal (ETV2): 0.882
binding signal (ETV3L): 0.963

GTAACT
binding signal (ETV2): 1.2
binding signal (ETV3L): 1.28

TCTAGC
binding signal (ETV2): 1.19
binding signal (ETV3L): 1.27

TGGAAA
binding signal (ETV2): 0.996
binding signal (ETV3L): 1.2

ATGTGT
binding signal (ETV2): 1.11
binding signal (ETV3L): 1.1

TTAAAA
binding signal (ETV2): 1.25
binding signal (ETV3L): 1.27

ACTAAG
binding signal (ETV2): 0.983
binding signal (ETV3L): 1.12

AATTTA
binding signal (SPIB): 1.4
binding signal (ETV2): 1.13
binding signal (ETV3L): 1.25

CAGAAT
binding signal (ETV2): 1.13
binding signal (ETV3L): 0.984

CTGCAA
binding signal (ETV2): 1.07
binding signal (ETV3L): 1.35

CGAAAG
binding signal (ETV2): 1.13
binding signal (ETV3L): 1.05

CTGTTT
binding signal (EHF): 1.34
binding signal (ETV2): 1.4
binding signal (ETV3L): 1.49

ACCACT
binding signal (ETV2): 1.27
binding signal (ETV3L): 1.36

ATTTAC
binding signal (ETV2): 1.16
binding signal (ETV3L): 1.18

TCGATC
binding signal (ETV2): 1.06
binding signal (ETV3L): 1.2

AGCTTT
binding signal (ETV2): 1.23
binding signal (ETV3L): 1.2

TTCACC
binding signal (EHF): 1.19
binding signal (ETV2): 1.36
binding signal (ETV3L): 1.32

GCGTTC
binding signal (ETV2): 1.23
binding signal (ETV3L): 1.15

CGACTT
binding signal (ETV2): 1.72
binding signal (ETV3L): 1.62

CTATAA
binding signal (EHF): 1.12
binding signal (ETV2): 1.15

TAGTCT
binding signal (SPIB): 0.9
binding signal (ETV2): 0.812
binding signal (ETV3L): 1.04

AATCCC
binding signal (SPIB): 1.32
binding signal (ETV2): 1.37
binding signal (ETV3L): 1.29

ATACCC
binding signal (EHF): 1.21
binding signal (ETV2): 1.24

CTGTCA
binding signal (EHF): 1.12
binding signal (ETV2): 1.19

TCACAT
binding signal (EHF): 1.27
binding signal (ETV2): 1.32

GGATCC
binding signal (EHF): 1.16
binding signal (ETV2): 1.29

TACGCT
binding signal (EHF): 1.25
binding signal (ETV2): 1.23

ACCACC
binding signal (SPIB): 1.18
binding signal (ETV2): 0.92
binding signal (ETV3L): 1.08

TACACG
binding signal (EHF): 1.1
binding signal (ETV2): 0.999

TCCCCA
binding signal (EHF): 1.45
binding signal (ETV2): 1.51

AACGTC
binding signal (EHF): 1.12
binding signal (ETV2): 0.984

TTGGCC
binding signal (SPIB): 1.16
binding signal (ETV2): 1.08
binding signal (ETV3L): 1.09

AAGCGA
binding signal (SPIB): 1
binding signal (ETV2): 0.936
binding signal (ETV3L): 1.02

TTATTT
binding signal (EHF): 1.35
binding signal (ETV2): 1.26

CGACCT
binding signal (SPIB): 1.63
binding signal (ETV2): 1.73
binding signal (ETV3L): 1.75

TATCTA
binding signal (EHF): 1.2
binding signal (ETV2): 1.25

TGGTTA
binding signal (EHF): 0.971
binding signal (ETV2): 0.983

GTTTGG
binding signal (EHF): 0.933
binding signal (ETV2): 1.06

GAAATC
binding signal (EHF): 1.53
binding signal (ETV2): 1.45

TCTGTT
binding signal (EHF): 1.45
binding signal (ETV2): 1.3

CTCAAC
binding signal (EHF): 1.18
binding signal (ETV2): 1.29

AACCCA
binding signal (EHF): 0.949
binding signal (ETV2): 0.983

CAATAA
binding signal (SPIB): 1.11
binding signal (ETV2): 1.14
binding signal (ETV3L): 1.13

TCCACA
binding signal (EHF): 1.25
binding signal (ETV2): 1.17

TGTTCT
binding signal (EHF): 1.4
binding signal (ETV2): 1.23

CGACGA
binding signal (EHF): 1.14
binding signal (ETV2): 1.01

CAAAAA
binding signal (EHF): 1.2
binding signal (ETV2): 1.17

GATTAC
binding signal (EHF): 1.12
binding signal (ETV2): 1.1

CTAATG
binding signal (EHF): 1.28
binding signal (ETV2): 1.12

AAATCC
binding signal (EHF): 1.58
binding signal (ETV2): 1.45

CCTGGG
binding signal (EHF): 0.965
binding signal (ETV2): 1.29

CTCAAT
binding signal (EHF): 1.25
binding signal (ETV2): 1.4

TAAGCT
binding signal (EHF): 1.2
binding signal (ETV2): 1.19

CGATGA
binding signal (EHF): 1.08
binding signal (ETV2): 0.977

TACTGG
binding signal (EHF): 0.97
binding signal (ETV2): 1.3

GGGCTT
binding signal (EHF): 1.24
binding signal (ETV2): 0.955

ATATGA
binding signal (EHF): 1.07
binding signal (ETV2): 0.985

TTGGGT
binding signal (SPIB): 1.05
binding signal (ETV2): 0.91

ACCCCG
binding signal (EHF): 1.27
binding signal (SPIB): 1.3
binding signal (ETV2): 1.21

AAGTAC
binding signal (EHF): 1.59
binding signal (SPIB): 1.57
binding signal (ETV2): 1.41

TAAAAT
binding signal (SPIB): 1.2
binding signal (ETV2): 1.34

CCCCCG
binding signal (SPIB): 1.09
binding signal (ETV2): 1.03

GGGCTA
binding signal (SPIB): 1.15
binding signal (ETV2): 0.977

TTAGGG
binding signal (SPIB): 1.17
binding signal (ETV2): 1.15

CCCTCC
binding signal (SPIB): 1.39
binding signal (ETV2): 1.32

AGACCT
binding signal (EHF): 0.975
binding signal (SPIB): 0.975
binding signal (ETV2): 1.2

AGATTC
binding signal (SPIB): 1.14
binding signal (ETV2): 1.32

GTCTAC
binding signal (SPIB): 1.03
binding signal (ETV2): 0.961
